The values that follow come from the supplement of paper PMC8551327.

“And” between values parts separate entries of the source, which are not always exact repeats. Equal entries are not always repeated. Structures can show the parent of a compound that is named as a salt. The list shows a part of the results. Rule as the data show it: active = 1.25 or more and inactive = the rest. Repeats are few or missing, and single values can be far off.

The subject of the assay is Kcc2-LUC knock-in mouse primary cortical neurons (Kcc2 promoter reporter). Description: Kcc2 promoter-driven luciferase activity relative to vehicle control (fold of vehicle (ratio)); higher = stronger Kcc2 promoter activation (Kcc2 expression enhancer). Particulars: 100 nM; 48 h.
For `Nc1ncnc2c1ncn2C1OC(CO)C(O)C1O` (centres undefined) [Xylosyladenine], the “Kcc2 promoter-driven luciferase activity” value is active: 1.59 and inactive: 1.2. Take `CC(C)=CC1C(C(=O)O)C1(C)C` (centres undefined) [Chrysanthemic Acid]: the “Kcc2 promoter-driven luciferase activity” value is inactive: 1.13.

Regarding `Nc1ccc(OCCCc2c(-c3ccccc3)nc(N)[nH]c2=O)cc1`, the “Kcc2 promoter-driven luciferase activity” value was inactive: 0.98.

As to `Cc1nc(Cl)c(C)c(Cl)n1` [4,6-Dichloro-2,5-dimethylpyrimidine], the “Kcc2 promoter-driven luciferase activity” value was inactive: 1.11. Take `CC(=O)N=C1N(/C=C2\C(=O)Oc3ccccc3C2=O)C(=O)/C(=C/c2ccccc2Cl)N1C`: the “Kcc2 promoter-driven luciferase activity” value is inactive: 0.46. For the compound `O=C1Nc2ccc(Br)cc2/C1=C\C(=O)c1ccccc1` [(3E)-5-Bromo-3-phenacylidene-1H-indol-2-one], the “Kcc2 promoter-driven luciferase activity” value was inactive: 1.06. Next, `CC1(O)C=CC(=O)C=C1` [4-Hydroxy-4-methyl-2,5-cyclohexadien-1-one]: active: 1.37; `COc1ccc(/C=C\c2cc(OC)c(OC)c(OC)c2)cc1OP(=O)(O)O` [Combretastatin A-4 Phosphate Sodium salt]: inactive: 1.13. Then `NC(=O)c1c([N+](=O)[O-])cc(C(F)(F)F)cc1[N+](=O)[O-]` [2,6-dinitro-4-(trifluoromethyl)benzamide], with inactive: 0.97. Next, `O=C(O)CC(NC(=O)CP(=O)(O)O)C(=O)O` (centres undefined): inactive: 1.21. Regarding `COc1ccc(Cc2nc3ccccc3s2)cc1OC` [2-[(3,4-dimethoxyphenyl)methyl]-1,3-benzothiazole], the “Kcc2 promoter-driven luciferase activity” value is inactive: 0.45. Then `CN1C(c2ccccc2)CC(=NO)CC1c1ccccc1` (centres undefined), with inactive: 0.82. On to `COc1cccc2c1C(=O)c1c(O)c3c(c(O)c1C2=O)C[C@@](O)(C(C)=O)C[C@@H]3O[C@H]1C[C@H](N)[C@H](O)[C@H](C)O1` [Daunorubicin], for which the “Kcc2 promoter-driven luciferase activity” value is inactive: 0.214. Next, `N[C@H](C(=O)O)[C@H]1ON=C(Cl)[C@H]1O` [Hydroxy AT 125]: inactive: 0.869; `NC(=S)N/N=C/c1ncccc1O` [[(E)-(3-Hydroxy-2-pyridyl)methyleneamino]thiourea]: inactive: 1.14; `Nc1ccn([C@@H]2C=C(CO)[C@@H](O)[C@H]2O)c(=O)n1` [Cyclopentenyl Cytosine]: inactive: 1.12. Then `O=C1Nc2c(Cl)cc(Cl)cc2C1=O` [5,7-Dichloroisatin], with inactive: 1.18; and `CCS(=O)(=O)Nc1ccc(Nc2c3ccccc3nc3ccccc23)c(OC)c1` [Ethanesulfonamide, monomethanesulfonate], with inactive: 1.1; and `Cc1cc(-c2nc3ccccc3s2)ccc1N` [4-(1,3-Benzothiazol-2-yl)-2-methylaniline], with active: 6.44.

`Cc1ccc([S+](c2ccccc2)c2cc(C)ccc2C)cc1.O=C(OC(C(=O)[O-])C(OC(=O)c1ccccc1)C(=O)O)c1ccccc1` (centres undefined): the “Kcc2 promoter-driven luciferase activity” value was inactive: 1.01. Then `COc1ccc(NC(=O)C(=O)/C=C(\O)c2ccccc2)cc1` [2-Hydroxy-N-(4-methoxyphenyl)-4-oxo-4-phenyl-2-butenamide], with active: 3.81; and `CCc1cccc(C(C)C)c1NC(=O)/C(=N\NC(N)=O)C(C(=O)OC)c1cnc2ccccc2n1` (centres undefined), with inactive: 1.03; and `Nc1ncnc2c1ncn2[C@@H]1O[C@H](CO)C[C@H]1O` [9-(.beta.-D-3'-Deoxyribofuranosyl)adenine], with inactive: 1.16.

For the compound `CC(C)(C)c1ccc(OC2CCO2)cc1` (centres undefined) [2-(4-Tert-Butylphenoxy)oxetane], the “Kcc2 promoter-driven luciferase activity” value is inactive: 1.1. For the compound `O=c1[nH]c(=O)n(C2OC(CO)C(O)C2O)cc1F` (centres undefined) [5-Fluorouracil arabinoside], the “Kcc2 promoter-driven luciferase activity” value is inactive: 0.78. Next, `CSCC(CO)NC(=O)/C=C/c1c(C)[nH]c(=O)[nH]c1=O` (centres undefined): inactive: 0.97; `C=C(C)[C@@H]1CC[C@]2(C)CC[C@]3(C)[C@H](CC[C@@H]4[C@@]5(C)CC[C@H](O)C(C)(C)[C@@H]5CC[C@]43C)[C@@H]12` [Lupeol]: inactive: 0.46; `CO[C@H]1[C@@H](OC(=O)/C=C/C=C/C=C/C=C/C(=O)O)CC[C@@]2(CO2)[C@@H]1[C@@]1(C)O[C@@H]1CC=C(C)C` [Fumagillin Dicyclohexylamine Salt]: inactive: 0.75.

Regarding `COc1c(O)cc2oc3cc(O)c(CC=C(C)C)c(O)c3c(=O)c2c1CC=C(C)C` [Mangostin], the “Kcc2 promoter-driven luciferase activity” value is inactive: 0.963. `CO[C@@H]1[C@@H](OC(=O)c2ccc(C)[nH]2)[C@@H](O)[C@H](Oc2ccc3c(O)c(NC(=O)c4c[nH]c(C(=O)Nc5c(O)c6ccc(O[C@@H]7OC(C)(C)[C@H](OC)[C@@H](OC(=O)c8ccc(C)[nH]8)[C@H]7O)c(C)c6oc5=O)c4C)c(=O)oc3c2C)OC1(C)C` [Coumermycin a1, Notomycin A1]: the “Kcc2 promoter-driven luciferase activity” value is inactive: 1.05. Next, `O=c1oc2cc(O)ccc2c2oc3cc(O)ccc3c12`: inactive: 0.859. As for `Nc1ccc2c(c1)S(=O)(=O)c1cc(N)ccc1-2` [Benzidine sulfone], the “Kcc2 promoter-driven luciferase activity” value is inactive: 1.16. Turning to `O=C1C=C(Nc2cccnc2)c2ccccc2C1=O` [4-(pyridin-3-ylamino)naphthalene-1,2-dione], the “Kcc2 promoter-driven luciferase activity” value is inactive: 0.33. Then `CCCCCCC1CC(=O)C1(Cl)Cl` (centres undefined) [2,2-Dichloro-3-hexylcyclobutanone], with inactive: 1.13; and `CC(=O)C(N1CCCCC1)C(O)(C(F)(F)F)C(F)(F)F` (centres undefined), with inactive: 1.21; and `O[C@@H]([C@H](O)[C@H](O)CBr)[C@H](O)CBr` [Dibromomannitol], with inactive: 1. Next, `CC1=C2[C@H]3OC(=O)[C@@H](C)[C@@H]3CC[C@@]2(C)C=C/C1=N\O` [Santonine Oxime]: inactive: 0.924. As for `O=C1C(=O)c2ccccc2C(O)=C1CC=C(Cl)Cl` [dichloroallyl lawsone], the “Kcc2 promoter-driven luciferase activity” value was active: 1.33. Then `Cn1ncc2cc3c(Nc4ccc(Cl)cc4)cccc3nc21` [N-(4-chlorophenyl)-1-methylpyrazolo[3,4-b]quinolin-5-amine], with active: 1.33.
